The values below come from paper PMC10621992.

Sequences of proteins named here, by UniProt entry; tags and fusion partners are left off.
UniProt P51451: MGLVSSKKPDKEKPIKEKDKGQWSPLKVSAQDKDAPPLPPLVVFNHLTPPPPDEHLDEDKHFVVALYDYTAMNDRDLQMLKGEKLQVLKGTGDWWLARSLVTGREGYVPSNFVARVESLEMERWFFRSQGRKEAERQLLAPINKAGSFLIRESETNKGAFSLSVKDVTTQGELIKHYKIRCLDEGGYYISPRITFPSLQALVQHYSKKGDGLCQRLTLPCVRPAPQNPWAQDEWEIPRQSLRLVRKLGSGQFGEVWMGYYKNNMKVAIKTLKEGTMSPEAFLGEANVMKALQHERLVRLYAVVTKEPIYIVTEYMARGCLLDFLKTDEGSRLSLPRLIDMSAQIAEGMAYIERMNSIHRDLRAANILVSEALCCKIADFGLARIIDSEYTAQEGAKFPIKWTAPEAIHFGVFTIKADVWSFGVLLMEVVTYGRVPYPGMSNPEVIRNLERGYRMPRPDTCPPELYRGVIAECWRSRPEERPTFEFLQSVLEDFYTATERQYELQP
UniProt Q14653: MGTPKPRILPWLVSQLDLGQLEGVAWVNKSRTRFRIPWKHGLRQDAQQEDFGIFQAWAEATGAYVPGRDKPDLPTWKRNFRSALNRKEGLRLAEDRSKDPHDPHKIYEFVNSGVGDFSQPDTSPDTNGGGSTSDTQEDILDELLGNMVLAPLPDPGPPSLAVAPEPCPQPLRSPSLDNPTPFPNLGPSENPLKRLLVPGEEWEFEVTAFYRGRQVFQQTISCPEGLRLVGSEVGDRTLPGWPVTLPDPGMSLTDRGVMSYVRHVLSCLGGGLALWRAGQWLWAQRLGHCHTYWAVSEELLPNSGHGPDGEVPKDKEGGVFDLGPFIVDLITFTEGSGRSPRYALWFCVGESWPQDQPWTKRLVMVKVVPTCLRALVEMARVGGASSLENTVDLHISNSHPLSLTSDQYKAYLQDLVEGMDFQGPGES

In the experiment the target is GST-BLK (B lymphoid tyrosine kinase), expressed in HEK293 cells (human) (UniProt P51451). Briefly: affinity purification with mass spectrom.

No constants are given. Whether binding was seen depends on the method and setting. In cells and extracts the contact can be indirect. Here binding means that the protein was enriched with, or labelled near, the bait; the list need not be complete.

Turning to “IRF3 (interferon regulatory factor 3), endogenous in HEK293 cells (from UniProt Q14653 1-427)”, the binding result was “binds”.
